Assay results reported in paper PMC6192633.
No constants are given. Whether binding was seen depends on the method and setting. In cells and extracts the contact can be indirect. Binding can be weak; no strength is given. For some of these results: Where a sequence is shown, tags or fusion partners need not be part of it.

Chains of the proteins cited; added tags and fusions are not shown. Lines headed by an entry give the natural chain unless they say otherwise; changes in a name come on top. Residues count along the entry.
UniProt Q9QUK6, residues 26-835: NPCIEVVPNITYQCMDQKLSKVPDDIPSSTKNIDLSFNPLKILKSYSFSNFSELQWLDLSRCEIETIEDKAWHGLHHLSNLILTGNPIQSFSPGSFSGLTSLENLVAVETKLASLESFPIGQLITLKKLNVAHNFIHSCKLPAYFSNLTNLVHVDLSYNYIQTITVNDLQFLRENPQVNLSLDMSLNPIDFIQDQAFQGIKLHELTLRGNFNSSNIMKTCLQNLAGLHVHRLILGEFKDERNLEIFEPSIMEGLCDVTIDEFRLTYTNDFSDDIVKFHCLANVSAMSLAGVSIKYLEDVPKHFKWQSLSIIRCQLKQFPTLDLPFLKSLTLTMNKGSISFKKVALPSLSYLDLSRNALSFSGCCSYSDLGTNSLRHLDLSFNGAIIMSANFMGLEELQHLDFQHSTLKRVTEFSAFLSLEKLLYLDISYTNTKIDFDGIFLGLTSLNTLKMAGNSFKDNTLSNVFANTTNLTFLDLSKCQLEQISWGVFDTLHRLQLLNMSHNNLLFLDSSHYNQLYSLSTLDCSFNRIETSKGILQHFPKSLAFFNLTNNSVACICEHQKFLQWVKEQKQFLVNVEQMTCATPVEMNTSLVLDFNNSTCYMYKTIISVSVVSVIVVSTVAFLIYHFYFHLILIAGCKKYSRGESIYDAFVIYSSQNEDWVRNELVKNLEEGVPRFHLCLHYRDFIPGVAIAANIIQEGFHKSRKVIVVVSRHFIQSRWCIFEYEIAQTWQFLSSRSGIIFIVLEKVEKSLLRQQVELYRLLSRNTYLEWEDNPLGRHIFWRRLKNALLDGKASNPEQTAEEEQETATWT
UniProt Q9NR96, residues 26-1032: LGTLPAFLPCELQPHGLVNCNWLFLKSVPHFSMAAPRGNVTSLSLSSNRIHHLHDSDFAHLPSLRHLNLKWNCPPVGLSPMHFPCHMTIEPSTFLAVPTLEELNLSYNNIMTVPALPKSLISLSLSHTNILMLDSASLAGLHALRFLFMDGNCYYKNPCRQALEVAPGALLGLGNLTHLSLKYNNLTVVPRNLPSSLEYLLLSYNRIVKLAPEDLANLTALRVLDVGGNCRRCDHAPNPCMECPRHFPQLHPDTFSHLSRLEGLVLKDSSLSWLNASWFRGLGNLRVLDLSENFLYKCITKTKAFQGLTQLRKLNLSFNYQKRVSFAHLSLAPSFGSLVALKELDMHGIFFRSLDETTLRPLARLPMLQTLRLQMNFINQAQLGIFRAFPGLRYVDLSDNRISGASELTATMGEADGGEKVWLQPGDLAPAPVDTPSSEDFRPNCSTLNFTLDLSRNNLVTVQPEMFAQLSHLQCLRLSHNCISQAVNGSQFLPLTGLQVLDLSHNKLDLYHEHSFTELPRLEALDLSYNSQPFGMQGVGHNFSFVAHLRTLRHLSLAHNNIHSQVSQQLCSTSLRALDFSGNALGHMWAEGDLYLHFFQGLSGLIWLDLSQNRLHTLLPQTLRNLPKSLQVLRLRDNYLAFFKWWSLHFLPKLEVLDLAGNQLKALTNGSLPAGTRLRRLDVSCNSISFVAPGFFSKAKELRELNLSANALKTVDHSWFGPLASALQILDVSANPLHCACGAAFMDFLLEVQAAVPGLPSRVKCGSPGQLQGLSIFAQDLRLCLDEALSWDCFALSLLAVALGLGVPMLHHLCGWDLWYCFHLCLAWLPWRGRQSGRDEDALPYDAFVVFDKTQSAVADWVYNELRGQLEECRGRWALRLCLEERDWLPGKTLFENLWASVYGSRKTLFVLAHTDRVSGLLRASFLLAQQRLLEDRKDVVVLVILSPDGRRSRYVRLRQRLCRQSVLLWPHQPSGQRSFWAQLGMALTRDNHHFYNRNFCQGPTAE
UniProt Q91WD0: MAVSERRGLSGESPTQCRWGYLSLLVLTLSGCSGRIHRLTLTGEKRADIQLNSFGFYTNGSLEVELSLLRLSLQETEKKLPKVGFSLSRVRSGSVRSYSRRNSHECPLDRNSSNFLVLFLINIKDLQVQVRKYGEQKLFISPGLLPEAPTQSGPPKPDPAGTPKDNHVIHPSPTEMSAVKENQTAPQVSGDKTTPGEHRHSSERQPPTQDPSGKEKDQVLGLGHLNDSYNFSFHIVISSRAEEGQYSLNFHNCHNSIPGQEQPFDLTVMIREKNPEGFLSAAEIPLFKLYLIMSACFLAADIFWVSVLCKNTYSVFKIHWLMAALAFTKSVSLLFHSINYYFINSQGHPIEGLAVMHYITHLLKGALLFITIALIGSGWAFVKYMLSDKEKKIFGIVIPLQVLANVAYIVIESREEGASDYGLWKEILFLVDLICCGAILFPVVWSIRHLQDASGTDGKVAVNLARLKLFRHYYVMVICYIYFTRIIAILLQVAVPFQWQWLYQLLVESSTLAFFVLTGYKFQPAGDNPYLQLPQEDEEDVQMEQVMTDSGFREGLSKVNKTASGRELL

Columns and labels:
Experiment in all cases: co-IP; HEK293 or HEK293T cells co-transfected with Flag- and HA-tagged proteins; lysis buffer 10 mM Tris pH 7.4, 100 mM NaCl, 1 mM EDTA, 1 mM EGTA, 1% Triton X-100, 10% glycerol, 0.1% SDS, 0.5% deoxycholate; anti-flag M2 agarose 2 h at 4°C; blots with anti-HA and anti-Flag (Fig 6A: cells stimulated with LPS for different times, with or without GPR108, blot with anti-MyD88)
Flag-tagged TLR7 (mouse) = molecular target: T1, Flag-tagged TLR7 (mouse) (UniProt P58681)
T1 sequence: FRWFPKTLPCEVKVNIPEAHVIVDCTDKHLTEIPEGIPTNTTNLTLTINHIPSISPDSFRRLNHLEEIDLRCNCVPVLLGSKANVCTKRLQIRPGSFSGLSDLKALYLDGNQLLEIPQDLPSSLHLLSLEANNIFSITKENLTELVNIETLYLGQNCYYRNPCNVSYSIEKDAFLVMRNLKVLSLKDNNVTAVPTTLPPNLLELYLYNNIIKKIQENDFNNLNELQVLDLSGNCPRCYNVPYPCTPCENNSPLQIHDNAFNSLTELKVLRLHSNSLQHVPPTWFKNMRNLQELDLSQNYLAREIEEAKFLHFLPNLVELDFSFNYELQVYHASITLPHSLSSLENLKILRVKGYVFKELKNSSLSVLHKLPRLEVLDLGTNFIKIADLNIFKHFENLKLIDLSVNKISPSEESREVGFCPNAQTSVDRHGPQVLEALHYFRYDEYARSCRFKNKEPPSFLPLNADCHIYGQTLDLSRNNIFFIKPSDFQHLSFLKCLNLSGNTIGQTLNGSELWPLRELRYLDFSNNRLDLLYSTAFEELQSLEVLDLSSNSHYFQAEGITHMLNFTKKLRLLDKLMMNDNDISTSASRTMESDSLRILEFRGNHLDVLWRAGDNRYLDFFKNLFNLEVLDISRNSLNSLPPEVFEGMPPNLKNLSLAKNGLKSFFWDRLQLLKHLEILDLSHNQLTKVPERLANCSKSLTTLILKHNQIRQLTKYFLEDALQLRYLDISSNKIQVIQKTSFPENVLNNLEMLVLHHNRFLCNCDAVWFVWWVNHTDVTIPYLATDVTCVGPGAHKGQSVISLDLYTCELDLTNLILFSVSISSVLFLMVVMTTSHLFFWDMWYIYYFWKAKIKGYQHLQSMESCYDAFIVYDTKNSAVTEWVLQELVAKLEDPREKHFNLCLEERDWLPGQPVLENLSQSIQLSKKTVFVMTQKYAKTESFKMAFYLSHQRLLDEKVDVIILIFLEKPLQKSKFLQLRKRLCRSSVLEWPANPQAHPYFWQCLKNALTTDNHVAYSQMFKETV

Flag-tagged TLR4 (mouse) = Flag-tagged TLR4 (mouse) (UniProt Q9QUK6)
Flag-tagged TLR9 = Flag-tagged TLR9 (UniProt Q9NR96)
Flag-tagged TLR3 (mouse) = molecular target: T2, Flag-tagged TLR3 (mouse) (UniProt Q99MB1)
T2 sequence: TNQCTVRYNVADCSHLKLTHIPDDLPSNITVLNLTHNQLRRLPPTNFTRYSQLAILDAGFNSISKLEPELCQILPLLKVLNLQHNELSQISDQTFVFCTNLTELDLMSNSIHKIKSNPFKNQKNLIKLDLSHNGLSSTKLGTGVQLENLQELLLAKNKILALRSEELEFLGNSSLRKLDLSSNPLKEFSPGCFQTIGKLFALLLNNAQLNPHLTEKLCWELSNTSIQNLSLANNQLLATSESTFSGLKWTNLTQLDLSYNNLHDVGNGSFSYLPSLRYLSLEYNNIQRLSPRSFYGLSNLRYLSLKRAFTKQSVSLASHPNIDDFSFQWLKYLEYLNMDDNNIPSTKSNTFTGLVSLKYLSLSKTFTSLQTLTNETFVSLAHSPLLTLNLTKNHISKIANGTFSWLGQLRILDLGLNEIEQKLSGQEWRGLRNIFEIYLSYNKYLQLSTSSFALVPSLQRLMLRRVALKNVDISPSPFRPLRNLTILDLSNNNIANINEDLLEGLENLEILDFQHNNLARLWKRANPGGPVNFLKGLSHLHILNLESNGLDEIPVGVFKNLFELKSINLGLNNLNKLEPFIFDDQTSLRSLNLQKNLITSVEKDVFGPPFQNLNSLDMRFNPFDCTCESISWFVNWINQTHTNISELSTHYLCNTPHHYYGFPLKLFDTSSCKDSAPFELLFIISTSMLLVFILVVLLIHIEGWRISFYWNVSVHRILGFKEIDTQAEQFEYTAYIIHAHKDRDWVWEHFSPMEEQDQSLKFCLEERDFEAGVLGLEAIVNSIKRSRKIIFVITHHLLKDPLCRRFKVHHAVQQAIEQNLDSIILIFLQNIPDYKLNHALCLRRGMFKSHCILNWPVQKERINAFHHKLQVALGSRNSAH

binding (Flag-tagged TLR7 (mouse)): binds
binding (Flag-tagged TLR4 (mouse)): binds
binding (Flag-tagged TLR9): binds
binding (Flag-tagged TLR3 (mouse)): binds
Substance: GPR108 mutant m2-HA (from UniProt Q91WD0)
